Square brackets hold non-standard residues; d marks the D form. Nle = CCCC[C@H](N)C(=O)O
Assays:
[1] = general procedure: Fmoc solid-phase peptide synthesis; Fmoc Rink Amide MBHA resin; HBTU or DIC, HOBT; details: whole synthesis, TFA
[2] = peptide made by a vendor (Fmoc solid-phase peptide synthesis; Fmoc Rink Amide MBHA resin; HBTU or DIC, HOBT); details: whole synthesis, TFA
[3] = scale of the general procedure 0.25 mmol

Row | Substance | isolated mass [1] | isolated yield [1, 3] | further results
1 | Ac-ANLAYWLLALFVYMWTDLRLFKKRPKP-NH2 | 71 mg | 7% | –
2 | Ac-ARVYDLGLRRLRQRRRLRRERVRAKRYDREFLLAFQF[Nle]-NH2 | – | – | isolated mass ([2]; scale 0.25 mmol): 6 mg; isolated yield ([2]; scale 0.25 mmol): 0.5%
3 | Ac-AYWLLALFVYMWTDLRLFKKRPKP-NH2 | 74 mg | 8% | –
4 | Ac-GAAEAAARVYDLGLRRLRQRRYLRRELLRF-NH2 | – | – | isolated mass ([2]; scale 0.3 mmol): 21 mg; isolated yield ([2]; scale 0.3 mmol): 2.3%
5 | Ac-GAAEAAAYVYDLLLRFLRQRRRLRRERVRA-NH2 | – | – | isolated mass ([2]; scale 0.25 mmol): 33 mg; isolated yield ([2]; scale 0.25 mmol): 3.6%
6 | Ac-KRFDREFLLAFQF[Nle]-NH2 | 64 mg | 11% | –
7 | Ac-KRYDREFLLAFQF[Nle]-NH2 | 60 mg | 12% | –
8 | Ac-KRYDREFLLAFQF[Nle]RRLRQRRRLRRERVRA-NH2 | 44 mg | 3% | –
9 | Ac-KRYDREFLLAFQF[Nle]VYDLGLRRLRQRRRLRR-NH2 | – | – | isolated mass ([2]; scale 0.25 mmol): 17 mg; isolated yield ([2]; scale 0.25 mmol): 2.6%
10 | Ac-KRYDREFLLAFQF[Nle]VYDLGLRRLRQRRRLRRERVRA-NH2 | – | – | isolated mass ([2]; scale 0.25 mmol): 38.6 mg; isolated yield ([2]; scale 0.25 mmol): 3.3%
11 | Ac-LAYWLLALFVAMWTDLRLFKKRPKP-NH2 | 120 mg | 13% | –
12 | Ac-LAYWLLALFVYMWTDLRLAKKRPKP-NH2 | 46 mg | 5% | –
13 | Ac-LAYWLLALFVYMWTDLRLFKKRPKP-NH2 | 120 mg | 1% | –
14 | Ac-LLALFVYMWTDLRLFKKRPKP-NH2 | 137 mg | 17% | –
15 | Ac-Leu-Ala-Tyr-Trp-Leu-Leu-Ala-Leu-Phe-Val-Tyr-Met-Trp-Thr-Asp-Leu-Arg-Leu-t-Butyl-Ala-Lys-Lys-Arg-Pro-Lys-Pro-NH2 | 55 mg | 6% | –
16 | Ac-MAKLKYWLLALFVYMWTDLLLFKKRPKP-NH2 | – | – | isolated mass ([1]; scale 0.25 mmol): 197 mg; isolated yield ([1]; scale 0.25 mmol): 19%
17 | Ac-MANLAYWLLALFVYKWTDLRLFKKRPKP-NH2 | 81.6 mg | 8% | –

Row | Substance | isolated mass [1] | isolated yield [1, 3] | further results
18 | Ac-MANLAYWLLALFVYLWTDLRLFKKRPKP-NH2 | 7.6 mg | 1% | –
19 | Ac-MANLAYWLLALFVYMFTDLRLFKKRPKP-NH2 | 48.7 mg | 55% | –
20 | Ac-MANLAYWLLALFVYMWTDLRLFKKRPKP-NH2 | – | – | isolated mass ([1]; scale 0.25 mmol): 73 mg; isolated yield ([1]; scale 0.25 mmol): 7%
21 | Ac-MANLAYWLLALFVYRWTDLRLFKKRPKP-NH2 | 81.6 mg | 8% | –
22 | Ac-MANLAYWLLALFVY[Nle]WTDLRLFKKRPKP-NH2 | 9.7 mg | 1% | –
23 | Ac-MANLGYWLLALFVYMWTDLLLFKKRPKP-NH2 | – | – | isolated mass ([2]; scale 0.25 mmol): 100 mg; isolated yield ([2]; scale 0.25 mmol): 11.5%
24 | Ac-MVKSKIYSWILLLFFAMWSDVGLCKKRPKP-NH2 | – | – | isolated mass ([2]; scale 0.25 mmol): 87 mg; isolated yield ([2]; scale 0.25 mmol): 9.6%
25 | Ac-MVKSKYGSWILLLFVAMWSDVGLCKKRPKP-NH2 | – | – | isolated mass ([2]; scale 0.25 mmol): 128 mg; isolated yield ([2]; scale 0.25 mmol): 14.5%
26 | Ac-MVKYKIGSLLLFLFVAMWSDVGLCKKRPKP-NH2 | – | – | isolated mass ([2]; scale 0.25 mmol): 53 mg; isolated yield ([2]; scale 0.25 mmol): 6%
27 | Ac-MYKSKILLWFLVLFVAMWSDVGLCKKRPKP-NH2 | – | – | isolated mass ([2]; scale 0.25 mmol): 85 mg; isolated yield ([2]; scale 0.25 mmol): 9.3%
28 | Ac-NLAYWLLALFVYMWTDLRLFKKRPKP-NH2 | 93 mg | 10% | –
29 | Ac-WLLALFVYMWTDLRLFKKRPKP-NH2 | 96 mg | 11% | –
30 | Ac-YDREFLLDFQF-NH2 | 69 mg | 17% | –
31 | Ac-YDREFLLDFQFM-NH2 | 5 mg | 1% | –
32 | Ac-YDREFLLDFQF[Nle]-NH2 | 128 mg | 29% | –
33 | Ac-YNREFLLDFQF[Nle]-NH2 | 18 mg | 3% | –
34 | Ac-YWLLALFVYMWTDLRLFKKRPKP-NH2 | 60 mg | 7% | –
